Results are given in words; binding and its absence hold for the method and conditions named. Some entries that bind do so weakly or less than the wild type.
Biological target: Sp1 of HeLa cells (UniProt P08047)
Assay: cell culture: transfected HeLa cells, anti-Sp1 immunoprecipitation and immunoblot (FIG. 5E)

By UniProt entry, the sequences of proteins in these tests, tags left out. Where a name states a change or a piece, a line headed by the entry shows the natural chain unless it says otherwise. Chains listed by the source or under a name are the forms on record and can include a tag or linker. Residues count along the entry.
UniProt P08047, residues 2-785: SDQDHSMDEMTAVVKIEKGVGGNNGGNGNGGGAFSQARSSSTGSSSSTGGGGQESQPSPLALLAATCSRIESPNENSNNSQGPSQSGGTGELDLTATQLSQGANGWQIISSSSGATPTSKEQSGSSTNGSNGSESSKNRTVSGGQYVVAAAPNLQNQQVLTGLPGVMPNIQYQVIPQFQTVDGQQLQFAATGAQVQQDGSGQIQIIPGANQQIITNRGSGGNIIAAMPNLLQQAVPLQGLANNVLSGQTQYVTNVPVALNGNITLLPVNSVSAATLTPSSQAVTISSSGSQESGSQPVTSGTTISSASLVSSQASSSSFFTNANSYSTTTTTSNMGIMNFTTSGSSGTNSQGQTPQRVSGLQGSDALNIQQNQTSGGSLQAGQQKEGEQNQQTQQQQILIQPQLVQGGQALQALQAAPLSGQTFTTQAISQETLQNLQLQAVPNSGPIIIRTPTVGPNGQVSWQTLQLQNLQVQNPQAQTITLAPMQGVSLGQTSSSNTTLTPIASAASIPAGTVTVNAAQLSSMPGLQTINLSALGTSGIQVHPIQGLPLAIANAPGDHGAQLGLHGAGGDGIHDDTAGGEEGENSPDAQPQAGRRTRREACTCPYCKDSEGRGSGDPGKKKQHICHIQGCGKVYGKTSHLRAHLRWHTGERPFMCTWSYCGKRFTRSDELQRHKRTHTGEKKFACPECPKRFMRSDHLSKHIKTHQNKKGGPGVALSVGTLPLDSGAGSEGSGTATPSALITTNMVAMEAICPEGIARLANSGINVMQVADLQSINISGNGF
PAS2B P329T (Q99814, form named): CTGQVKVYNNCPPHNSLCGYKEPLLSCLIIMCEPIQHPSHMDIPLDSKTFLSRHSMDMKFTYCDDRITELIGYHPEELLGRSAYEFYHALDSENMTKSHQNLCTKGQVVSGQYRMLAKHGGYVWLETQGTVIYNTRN

binding: binds
Substance: PAS2B P329T (from UniProt Q99814 195-331)

From patent publication US20100074897A1, “Methods and Compositions related to HIF-1 alpha” (University of Utah Research Foundation, priority 2006, published 2010)
